The results in this text go back to doi:10.1101/2024.05.06.590855.

By UniProt entry, the sequences of proteins in these tests, tags left out.
UniProt O09106: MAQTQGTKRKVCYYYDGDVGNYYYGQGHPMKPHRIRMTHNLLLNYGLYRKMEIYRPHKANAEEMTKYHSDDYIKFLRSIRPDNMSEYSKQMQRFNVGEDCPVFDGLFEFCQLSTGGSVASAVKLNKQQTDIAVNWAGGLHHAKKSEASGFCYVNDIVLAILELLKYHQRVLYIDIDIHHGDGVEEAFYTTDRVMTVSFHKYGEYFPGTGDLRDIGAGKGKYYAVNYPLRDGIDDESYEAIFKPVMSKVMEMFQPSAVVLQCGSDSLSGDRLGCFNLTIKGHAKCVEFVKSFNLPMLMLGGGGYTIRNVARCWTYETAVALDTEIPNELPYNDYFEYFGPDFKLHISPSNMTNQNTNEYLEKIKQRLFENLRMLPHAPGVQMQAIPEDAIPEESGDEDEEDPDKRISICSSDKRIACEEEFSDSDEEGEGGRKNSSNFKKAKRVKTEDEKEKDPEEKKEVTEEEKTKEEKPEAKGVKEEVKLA
UniProt P70288: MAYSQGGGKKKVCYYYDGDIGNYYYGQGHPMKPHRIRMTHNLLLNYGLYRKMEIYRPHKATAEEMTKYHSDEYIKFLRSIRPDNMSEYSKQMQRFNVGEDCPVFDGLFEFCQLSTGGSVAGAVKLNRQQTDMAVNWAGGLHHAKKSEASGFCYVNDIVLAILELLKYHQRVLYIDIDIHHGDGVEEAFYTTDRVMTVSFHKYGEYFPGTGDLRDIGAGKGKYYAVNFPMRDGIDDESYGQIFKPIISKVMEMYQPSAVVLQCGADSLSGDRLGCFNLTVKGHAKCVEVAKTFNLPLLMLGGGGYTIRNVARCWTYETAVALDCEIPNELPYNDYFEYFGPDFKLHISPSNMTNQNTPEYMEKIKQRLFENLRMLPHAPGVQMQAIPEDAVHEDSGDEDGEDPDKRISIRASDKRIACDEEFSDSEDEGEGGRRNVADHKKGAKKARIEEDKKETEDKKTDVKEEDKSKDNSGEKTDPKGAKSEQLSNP

These are yes or no findings as the source states them, for the method shown. Binding seen in cells or lysates may run through a third protein. Some binding calls cover weakened binding; strength is not graded here.

This experiment addresses histone deacetylase 1 (HDAC1) (mouse (endogenous in AM-like cells from mouse bone marrow)) (UniProt O09106). Put plainly: co-IP.

For the substance “histone deacetylase 2 (HDAC2) (from UniProt P70288 1-488)”, the binding entry is “binds”.
